These results are taken from PMC3404970.

The target of the experiment is T1, biotinylated synthetic DRIP-2 peptide (VDR specific LXXLL nuclear receptor binding motif peptide).
T1 sequence (peptide, biotin (position not stated)): NTKNHPMLMNLLKDNPAQD
Nature of the experiment: pull-down; biotinylated DRIP-2 peptide (1 ug) incubated with 6 mg HaCaT lysate overnight at 4 C, captured on magnetic streptavidin beads, washed with TBS + 0.05% TWEEN, western blot with anti-VDR and anti-PIM-1; control lysate without peptide; only the target purified.

Results are given in words; binding and its absence hold for the method and conditions named. Binding seen in cells or lysates may run through a third protein. Some entries that bind do so weakly or less than the wild type.

B1: endogenous VDR of human HaCaT keratinocytes (receptor, UniProt P11473 1-427)
chain: MEAMAASTSLPDPGDFDRNVPRICGVCGDRATGFHFNAMTCEGCKGFFRRSMKRKALFTCPFNGDCRITKDNRRHCQACRLKRCVDIGMMKEFILTDEEVQRKREMILKRKEEEALKDSLRPKLSEEQQRIIAILLDAHHKTYDPTYSDFCQFRPPVRVNDGGGSHPSRPNSRHTPSFSGDSSSSCSDHCITSSDMMDSSSFSNLDLSEEDSDDPSVTLELSQLSMLPHLADLVSYSIQKVIGFAKMIPGFRDLTSEDQIVLLKSSAIEVIMLRSNESFTMDDMSWTCGNQDYKYRVSDVTKAGHSLELIEPLIKFQVGLKKLNLHEEEHVLLMAICIVSPDRPGVQDAALIEAIQDRLSNTLQTYIRCRHPPPGSHLLYAKMIQKLADLRSLNEEHSKQYRCLSFQPECSMKLTPLVLEVFGNEIS
For B1, the binding entry is given as “binds”.
